Measured values reported in the supplement of paper PMC8166895.
Where a name gives a salt, the structure may show the parent alone. This is one part of the list. Most values lie at the level of the controls, where differences are scatter.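 A single-replicate pilot screen of approved drugs and clinical or known-target compounds measured melting temperature via differential scanning fluorimetry. Top stabilizing hits raised the melting point by 2 °C or more; negative shifts indicate destabilization.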

Each compound was assayed on SARS-CoV-2 main protease (Mpro, nsp5) (assay: thermal shift ΔTm of Mpro relative to plate average Tm; higher = stronger thermal stabilization of Mpro (binding)). Conditions: 10 µM; protein concentration 1 µM.

| Compound | thermal shift ΔTm of Mpro [°C] |
| --- | --- |
| COc1cc(C2Oc3cc([C@H]4Oc5cc(O)cc(O)c5C(=O)[C@@H]4O)ccc3OC2CO)ccc1O (some centres undefined) [Silibinin] | -0.123 |
| COc1cc(C2Oc3cc([C@H]4Oc5cc(O)cc(O)c5C(=O)[C@@H]4O)ccc3OC2CO)ccc1O (some centres undefined) [Silymarin] | -0.116 |
| CC(C)CCCC(C)N (centres undefined) [2-Amino-6-methylheptane] | -0.0415 |
| O=c1cc(-c2ccccc2)oc2cc(O)c(O)c(O)c12 [Baicalein] | 3.42 |
| CN(C)CCn1nnnc1SCC1=C(C(=O)O)N2C(=O)[C@@H](NC(=O)Cc3csc(N)n3)[C@H]2SC1 [Cefotiam hydrochloride] | 0.413 |
| CN1CCN(c2ccc(Nc3ncc4cc(C#N)c(=O)n(C5CCCC5)c4n3)cc2)CC1 | 0.0251 |
| CCN1C[C@H](C)n2c(c(O)c3c(=O)n(Cc4ccc(F)c(Cl)c4)nc(C(=O)NC)c32)C1=O | -0.0128 |
| COc1ccc2cc(C(C)C(=O)Oc3ccc(C(N)=S)cc3)ccc2c1 (centres undefined) | -0.17 |
| NCC(=O)[O-].NCC(=O)[O-].[Fe+2] [Ferrous Bisglycinate] | 0.103 |
| C1CCc2nnnn2CC1 [Pentetrazol] | -0.0128 |
| CC(=O)c1c(C)c2cnc(Nc3ccc(N4CCNCC4)cn3)nc2n(C2CCCC2)c1=O [Palbociclib] | 0.0179 |
| CC(=O)c1c(C)c2cnc(Nc3ccc(N4CCNCC4)cn3)nc2n(C2CCCC2)c1=O [Palbociclib Isethionate] | 0.0451 |
| CC(=O)c1c(C)c2cnc(Nc3ccc(N4CCNCC4)cn3)nc2n(C2CCCC2)c1=O | 0.0779 |
| CC(=O)c1c(C)c2cnc(Nc3ccc(N4CCNCC4)cn3)nc2n(C2CCCC2)c1=O [Palbociclib hydrochloride] | 0.0263 |
| O.O.O.O=C([O-])[C@H]([O-])[C@@H]([O-])C(=O)[O-].O=C([O-])[C@H]([O-])[C@@H]([O-])C(=O)[O-].[K+].[K+].[Sb+3].[Sb+3] [Potassium antimonyl tartrate sesquihydrate] | 0.339 |
| CC(C)(C)c1ccc(S(=O)(=O)/C=C/C#N)cc1 | -0.813 |
| COc1nccnc1NS(=O)(=O)c1ccc(N)cc1 [Sulfalen] | 0.182 |
| CC(N)CCCC(C)(C)O (centres undefined) [Heptaminol hydrochloride] | 0.145 |
| CNC(=O)c1cc(Oc2ccc3nc(N[C@@H]4CCCC[C@H]4O)sc3c2)ccn1 | 0.0339 |
| N#CCC(=O)NN [Cyanoacetohydrazide] | 0.162 |
| CN1CCCN=C1/C=C/c1cccc(O)c1 [Oxantel Pamoate] | 0.266 |
| C/C(=C\c1csc(C)n1)[C@@H]1C[C@@H]2O[C@]2(C)CCC[C@H](C)[C@H](O)[C@@H](C)C(=O)C(C)(C)[C@@H](O)CC(=O)O1 [Epothilone B (EPO906, Patupilone)] | 0.535 |
| C[C@@H](O[C@H]1OCCN(Cc2n[nH]c(=O)[nH]2)[C@H]1c1ccc(F)cc1)c1cc(C(F)(F)F)cc(C(F)(F)F)c1 [Aprepitant] | -0.118 |
| Oc1cccc(O)c1 [Resorcine] | 0.0758 |
| O=[Si]=O [Sodium montmorillonite] | 0.0403 |
| Cc1cn(-c2cc(NC(=O)c3ccc(C)c(Nc4nccc(-c5cccnc5)n4)c3)cc(C(F)(F)F)c2)cn1 [Nilotinib (AMN-107)] | 0.117 |
| NC(=O)c1ccc(-c2nc(-c3ccccn3)c(-c3ccc4c(c3)OCO4)[nH]2)cc1 | 0.105 |

| Compound | thermal shift ΔTm of Mpro [°C] |
| --- | --- |
| Cc1cc(O)cc(C)c1Cl [Chloroxylenol] | -0.0392 |
| CCCNC(=O)Nc1ccc(Oc2ncnc3cc(OC)c(OC)cc23)cc1Cl | -0.155 |
| COC(=O)CCC(=O)CN [Methyl Aminolevulinate Hydrochloride] | 0.309 |
| O=S(=O)(O)Oc1ccc(C(c2ccc(OS(=O)(=O)O)cc2)c2ccccn2)cc1 [Sodium Picosulfate] | 0.00696 |
| CC=CC1=C(C(=O)O)N2C(=O)[C@@H](NC(=O)[C@H](N)c3ccc(O)cc3)[C@H]2SC1 [Cefprozil hydrate] | 0.21 |
| CCN(CC)CCOc1ccc(Nc2ncc3cc(-c4c(Cl)cccc4Cl)c(=O)n(C)c3n2)cc1 | -0.0339 |
| NS(=O)(=O)c1ccc(S(=O)(=O)Nc2cccc3c(Cl)c[nH]c23)cc1 [Indisulam] | 0.00627 |
| O=C1c2ccccc2C(=O)C1c1ccc(Br)cc1 [Bromindione] | 0.207 |
| CCn1c(-c2nonc2N)nc2c(C#CC(C)(C)O)ncc(OC[C@H]3CCCNC3)c21 | 0.174 |
| CC(=NNC(=S)N1CCC1)c1ccccn1 | -0.0659 |
| Cc1cc2c(s1)Nc1ccccc1N=C2N1CCN(C)CC1 [Olanzapine] | -0.117 |
| Cc1cc(C(=O)O)sc1C(N)C(=O)O (centres undefined) | 0.043 |
| CN1C(=O)C(Cc2c[nH]c3ccccc23)NC1=S (centres undefined) [Necrostatin-1] | 0.016 |
| C=CC[C@]1(O)CC[C@H]2[C@@H]3CCC4=CC(=O)CCC4=C3C=C[C@@]21C [Altrenogest] | 0.0304 |
| CCOC(=S)SSC(=S)OCC [Dixanthogen] | 0.412 |
| Cn1cc(/C=C2\C(=O)Nc3cccnc32)c2ccccc21 | -0.124 |
| C[C@]12CC[C@H](O)C[C@H]1CC[C@@H]1[C@@H]2[C@H](O)C[C@]2(C)[C@@H](c3ccc(=O)oc3)CC[C@]12O [Gamabufotalin] | -0.0175 |
| Cc1ccc(NC(=O)C2(c3ccc4c(c3)OC(F)(F)O4)CC2)nc1-c1cccc(C(=O)O)c1 [VX-809 (Lumacaftor)] | -0.0445 |
| CNC(=O)c1ccc(Nc2ncc(C(F)(F)F)c(NCc3nccnc3N(C)S(C)(=O)=O)n2)cc1 [Defactinib] | 0.00307 |
| Cc1c(O)c(=O)n(-c2ccccc2)n1C [4-Hydroxyantipyrine] | 0.278 |
| O=C(NN=Cc1c(O)ccc2ccccc12)c1ccncc1 | -0.0397 |
| CC(C)OC(=O)C(C)(C)Oc1ccc(C(=O)c2ccc(Cl)cc2)cc1 [Fenofibrate] | 0.0371 |
| OCCOc1ccc(/C(=C(/CCCl)c2ccccc2)c2ccccc2)cc1 [Ospemifene] | -0.448 |
| COc1cc2ncnc(-n3nc(-c4ccccn4)nc3N)c2cc1OC | -0.00659 |
| Nc1ncnc2c1ncn2C1OC(COP(=O)(O)O)C(O)C1O (centres undefined) [Adenosine 5'-monophosphate monohydrate] | -0.105 |
| C[C@@H]1C[C@H]2[C@@H]3CCC4=CC(=O)C=C[C@]4(C)[C@@]3(Cl)[C@@H](O)C[C@]2(C)[C@@]1(OC(=O)c1ccco1)C(=O)CCl [Mometasone furoate] | 0.114 |
| CCOC(=O)[C@H](CCc1ccccc1)N[C@@H](C)C(=O)N1C(=O)N(C)C[C@H]1C(=O)O [Imidapril HCl] | 0.171 |

| Compound | thermal shift ΔTm of Mpro [°C] |
| --- | --- |
| O=C(O)[C@H](CC(=O)N1C[C@H]2CCCC[C@H]2C1)Cc1ccccc1 [Mitiglinide calcium] | -0.0305 |
| C[C@]12CCC3=C4CCC(=O)C=C4CC[C@H]3[C@@H]1CC[C@@]2(O)CC#N [Dienogest] | 0.163 |
| c1coc(CNc2ncnc3[nH]cnc23)c1 [Kinetin] | -0.05 |
| CS(=O)(=O)c1ccc(-c2nnc(/C=C/c3nnc(-c4ccc(C#N)cc4)o3)n2-c2ccccc2Cl)nc1 | -0.00983 |
| COc1cccc(NCC(O)Cn2c3ccc(Br)cc3c3cc(Br)ccc32)c1 (stereo in doubt) | 0.368 |
| O=c1oc2cc(O)ccc2s1 [Tioxolone] | -0.000774 |
| Cc1[nH]nc(C(F)(F)F)c1Cc1sc2c(c1C(=O)N1C[C@](C)(O)CO1)c(=O)n(C)c(=O)n2C(C)C | 0.00683 |
| COc1cc2ncnc(Nc3cccc(Cl)c3)c2cc1OC [AG-1478 (Tyrphostin AG-1478)] | -0.0444 |
| C/C(=C\C(=O)OCCCCCCCCC(=O)O)C[C@@H]1OC[C@H](C[C@@H]2O[C@H]2[C@@H](C)[C@H](C)O)[C@@H](O)[C@H]1O [Mupirocin] | -0.0585 |
| Cc1ccccc1-n1c(Cn2cnc3c(N)ncnc32)nc2cccc(C)c2c1=O | 0.201 |
| N#C/C(=C\c1ccc(O)c(O)c1)C(=O)NCCCc1ccccc1 | -0.41 |
| O=[N+]([O-])c1ccc(S(=O)(=O)N2CCN(c3ccnc4cc(Cl)ccc34)CC2)c([N+](=O)[O-])c1 | -0.389 |
| O=C(O)c1cc(N(Cc2ccccc2O)Cc2cc(O)ccc2O)ccc1O [lavendustin A] | -0.00392 |
| CN/C(=N\CCSCc1nc[nH]c1C)NC#N [Cimetidine] | 0.0424 |
| COc1ccc(C2=N[C@@H](c3ccc(Cl)cc3)[C@@H](c3ccc(Cl)cc3)N2C(=O)N2CCNC(=O)C2)c(OC(C)C)c1 [Nutlin-3] | -0.179 |
| COc1ccc(C2=N[C@@H](c3ccc(Cl)cc3)[C@@H](c3ccc(Cl)cc3)N2C(=O)N2CCNC(=O)C2)c(OC(C)C)c1 [Nutlin-3a] | -0.225 |
| COc1ccc(S(=O)(=O)N(Cc2cccnc2)[C@@H](C(=O)NO)C(C)C)cc1 | 0.0379 |
| CC(C)N(CCCCOCC(=O)NS(C)(=O)=O)c1cnc(-c2ccccc2)c(-c2ccccc2)n1 [Selexipag] | -0.0447 |
| C#C[C@]1(O)CC[C@H]2[C@@H]3CCC4=CC(=O)CC[C@@H]4[C@H]3C(=C)C[C@@]21CC [Etonogestrel] | 0.325 |
| NC(=O)c1ccc(I)c([N+](=O)[O-])c1 [Iniparib (BSI-201)] | 0.134 |
| c1ccc(-c2oc3ncnc(NC[C@@H]4CCCO4)c3c2-c2ccccc2)cc1 | -0.253 |
| O=C(O)c1cc(/N=N/c2ccc(S(=O)(=O)Nc3ccccn3)cc2)ccc1O [Sulfasalazine] | -0.159 |
| C=C1c2cccc(O)c2C(O)=C2C(=O)[C@]3(O)C(O)=C(C(N)=O)C(=O)[C@@H](N(C)C)[C@@H]3[C@@H](O)[C@H]12 [Methacycline HCl] | -0.0903 |
| COCC1(CO)C(=O)C2CCN1CC2 (centres undefined) | 0.293 |
| Cc1cccc(C(C)c2c[nH]cn2)c1C (centres undefined) [Medetomidine HCl] | -0.0613 |
